## Screening data, single-dose tests

The values are deposited in ChEMBL (CHEMBL3988442, “University of Dundee, Small-Polar-MMV Screening Library” (2021)).

Mtb cholesterol medium: 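Growth of Mycobacterium tuberculosis over 4 days (cholesterol / DPPC medium with tyloxapol); the read-out is not stated. Concentration: 50 µM. The record gives no direction; compounds that gave an IC50 in retests scored well above the rest, so higher reads as more growth inhibition. Of about 69,000 compounds tested this way, about 370 (0.54%) reached 50% or more in at least one test.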
Mtb glucose medium: 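Whole-cell growth test on Mycobacterium tuberculosis, read after 3 days in glucose-containing 7H9 medium; the read-out is not stated. Tested at 50 µM. Direction is inferred from retests: higher values go with more growth inhibition. Of about 69,000 compounds tested this way, about 760 (1.1%) reached 50% or more in at least one test.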

Values are the deposited “Percent Effect”, in %.
The controls that fix the scale are not given in the record; negative values are as filed.
This is an unselected part of the compounds tested.
Two or more numbers in one place are separate tests of the same structure; such repeats can differ widely.

compound: Cc1cc2n(n1)CC(CNCc1ccc(Oc3ccccc3)nc1)CN2 (stereo unspecified)
Mtb cholesterol medium: 11.86
Mtb glucose medium: 6.702

compound: Cn1cccc1C(=O)N1CCCn2nc(CCC(=O)NC3CC3)cc2C1
Mtb cholesterol medium: -22.37
Mtb glucose medium: -36.31

compound: COCc1cccc(CNCc2c(C)nn(C)c2N(C)C)c1
Mtb cholesterol medium: -4.962
Mtb glucose medium: 14.32

compound: CC(C)n1nnnc1-c1ccc(NC(=O)N(C)CCN(C)C)cc1F
Mtb cholesterol medium: 5.914
Mtb glucose medium: -18.67 & 4.876

compound: O=C(O)C(F)(F)F.[H][C@@]12CCN(Cc3scnc3C)C[C@]1(C(=O)NC(C)C)CCO2
Mtb cholesterol medium: 9.134
Mtb glucose medium: -18.86

compound: CCC(C)NC(=O)CS(=O)(=O)Cc1ccccc1Cl (stereo unspecified)
Mtb cholesterol medium: -32.57
Mtb glucose medium: 11.19 & -39.72

compound: O=C(O)C(F)(F)F.[H][C@]12CCCC(OCc3cccnc3)[C@@]1([H])CN(C(=O)c1cscn1)C2 (stereo partly specified)
Mtb cholesterol medium: 8.813
Mtb glucose medium: -28.38

compound: Cc1cccc(CN2CCC3(CCCN(Cc4cnn(C)c4)C3)C2=O)n1 (stereo unspecified)
Mtb cholesterol medium: -16.76
Mtb glucose medium: -1.146

compound: [H][C@]12CCN(Cc3ccc4c(c3)OCO4)[C@@]1([H])CCN2CCN(C)C
Mtb cholesterol medium: 4.955
Mtb glucose medium: 11.84

compound: Cl.O=C1N(Cc2cccc(Cl)c2)CCC12CCCNC2 (stereo unspecified)
Mtb cholesterol medium: -12.66
Mtb glucose medium: 8.399

compound: Cc1ccc(NCc2cn3c(n2)CN(Cc2ccoc2)CC3)nn1.O=C(O)C(F)(F)F.O=C(O)C(F)(F)F
Mtb cholesterol medium: -2.619
Mtb glucose medium: -24.92 & -13.5

compound: CC(=O)N[C@@H]1Cc2ccccc2[C@H]1Nc1ccncn1
Mtb cholesterol medium: 13.27
Mtb glucose medium: 5.632

compound: Cc1cccc(N2CC3(CCN(c4nncs4)C3)CC2=O)c1 (stereo unspecified)
Mtb cholesterol medium: 21.22
Mtb glucose medium: 8.426

compound: CCc1nccn1C1CCCN(C(=O)c2cc(C3CC3)on2)C1 (stereo unspecified)
Mtb cholesterol medium: -4.02
Mtb glucose medium: -20.15

compound: Cc1cc(CN(C)C(=O)NCc2ccnc(SC(C)(C)C)c2)no1
Mtb cholesterol medium: 9.894
Mtb glucose medium: 13.54

compound: CCn1cnnc1CNC(=O)N1CCN(c2cccc(OC)c2)CC1
Mtb cholesterol medium: -22.43
Mtb glucose medium: -10.39

compound: CCN(CC1CCCO1)C(=O)Nc1ccc(F)cc1OC (stereo unspecified)
Mtb cholesterol medium: -2.57
Mtb glucose medium: -1.317

compound: c1ccc(-c2nnc(CN3CCCC(Cn4cncn4)C3)o2)cc1 (stereo unspecified)
Mtb cholesterol medium: 19.89
Mtb glucose medium: 24.1

compound: CC(=O)N1CCOC(c2c(C(=O)O)sc3ccccc23)C1 (stereo unspecified)
Mtb cholesterol medium: -9.029
Mtb glucose medium: -16.81

compound: N#Cc1ccc(F)c(CNC(=O)NC(CO)c2ccccc2)c1 (stereo unspecified)
Mtb cholesterol medium: -7.626
Mtb glucose medium: 8.756

compound: CCc1cc(CNC(=O)C2CCC(=O)N(Cc3ccccc3F)C2)on1 (stereo unspecified)
Mtb cholesterol medium: 16.95
Mtb glucose medium: 2.564 & -12.57

compound: Cc1nc(CN2CCOCC3(CCCN(c4cnccn4)C3)C2)cs1.O=C(O)C(F)(F)F (stereo unspecified)
Mtb cholesterol medium: -17.12
Mtb glucose medium: -4.129 & -30.34

compound: Cc1cccc(CN(Cc2cccnc2)C2CC(C)(C)NC(C)(C)C2)n1.O=C(O)CC(O)(CC(=O)O)C(=O)O
Mtb cholesterol medium: -5.879
Mtb glucose medium: 2.191

compound: CCCn1cc(S(=O)(=O)N[C@H]2CN(C(C)=O)C[C@@H]2C2CC2)cn1
Mtb cholesterol medium: -24.49 & -11.98
Mtb glucose medium: -1.828

compound: CC(=O)NCCNC(=O)CN1CCOC(Cn2cc(C)cn2)C1 (stereo unspecified)
Mtb cholesterol medium: -11.82
Mtb glucose medium: -1.432

compound: COCC(=O)N[C@H](C)c1c(-c2ccc(OC)cc2)noc1C(=O)O
Mtb cholesterol medium: -27.24
Mtb glucose medium: -42.86 & -7.027

compound: CC(C)N1CCC2(CCCN(Cc3ccc(F)cc3)C2=O)C1 (stereo unspecified)
Mtb cholesterol medium: 4.436
Mtb glucose medium: 23.3

compound: CC(CNC(=O)Nc1ccc(C#N)cc1)N1CCc2ccccc21 (stereo unspecified)
Mtb cholesterol medium: 13.43
Mtb glucose medium: 24.85

compound: COc1ncnc2c1CCN(C(=O)NCc1cccnc1)CC2.O=C(O)C(F)(F)F
Mtb cholesterol medium: -16.98
Mtb glucose medium: 0.3677 & 0.9986

compound: CC(C)c1n[nH]c(C(=O)Nc2ccccn2)c1Br
Mtb cholesterol medium: 17.03
Mtb glucose medium: 33.3 & 19.48

compound: Cc1cc(C)n(C2CN(CC(O)COc3ccc(F)cc3)C2)n1 (stereo unspecified)
Mtb cholesterol medium: 5.621
Mtb glucose medium: 15.99

compound: CCCC1CN(CCOC)C(=O)c2cccnc2O1 (stereo unspecified)
Mtb cholesterol medium: 13.87
Mtb glucose medium: 18.34

compound: O=C(O)C(F)(F)F.c1cnc(N2CCCn3nnc(COCC4CC4)c3C2)nc1
Mtb cholesterol medium: 0.9911
Mtb glucose medium: -1.595 & 6.607

For reference, 2 entries once more:

{"compound": "Cc1cc(C)n(C2CN(CC(O)COc3ccc(F)cc3)C2)n1", "stereo": "stereo unspecified", "Mtb cholesterol medium": 5.621, "Mtb glucose medium": 15.99}
{"compound": "Cn1cccc1C(=O)N1CCCn2nc(CCC(=O)NC3CC3)cc2C1", "Mtb cholesterol medium": -22.37, "Mtb glucose medium": -36.31}